Experiment [1] addresses T1, antigen peptide (human periostin exon 21 with a Cys residue added to the N-terminus) (human).
T1 sequence (peptide, N-terminal Cys conjugated to a carrier protein (ovalbumin in the ELISA)): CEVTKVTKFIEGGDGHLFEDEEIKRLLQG
The experiment in a line: ELISA, hybridoma culture supernatant on plate coated with OVA-conjugated antigen peptide.

In experiment [2] the target is T2, human periostin exon 21 (human).
T2 sequence (peptide): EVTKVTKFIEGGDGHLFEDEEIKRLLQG
The experiment is described as follows: peptide array of 10-amino-acid peptides of exon 21, Alexa Fluor 647-labeled secondary antibody.

Results are given in words; binding and its absence hold for the method and conditions named. Some results given as binding are weak or reduced against the parent protein; the word gives no strength.

B1: Antibody C (antibody, V domains shown)
VH: EVQLVESGGGLVKPGGSLRLSCAASGFIFSSYAMSWVRQPPGKRLEWVASIGSGGTTYYPDSVRGRFTISRDNARNILYLQMRSLRAEDTAVYYCAAIWDGSSHGYWGQGTLLTVSS
VL: DVVMTQSPLSLPVTLGQPASISCRSSQNLVHSNGNTYLHWYLQRPGQSPQLLIYKVSNRFSGVPDRFSGSGSGTDFTLKISRVEAEDLGVYYCSQSTHVPYTFGPGTKLEIK
Turning to B1, the binding result in experiment [1] and in experiment [2] was “binds” each time.

B2: Antibody A (antibody, V domains shown)
VH: KVQLVQSGAEVVKPGASVKLSCKASGYTFTEYIIHWVKQASGQGLEWIGWFYPGRGIIKYNEKFKDKATLTADKSISTVYMDLSRLRSEDTAVYFCARHGITTATGAMDYWGQGTLVTVSS
VL: DVVMTQTPLSLSVTLGQPASISCRSSQSLLHSNGNTYLHWYLQKPGQAPKLLIYKVSNRFSGVPDRFSGSGSGTDFTLKISRVEAEDVGVYFCSQSTHVPFTFGQGTKLEIK
For the molecule B2, the binding entry in experiment [1] and in experiment [2] was “binds” each time.

B3: Antibody D (antibody, V domains shown)
VH: EVQLVESGGGLVKPGGSLRLSCAASGFTFSSYAMSWVRQTPEKRLEWVASINSGGVTTYYPDSVKGRFTISRDNAINILYLQMRSLRSEDTALYYCAAIWDGSSHGYWGQGTLVTVSS
VL: DVVMTQSPLSLPVTLGQPASISCRSSQSLVHSNGNTYLHWYLQRPGQSPRLLIYKVSNRFSGVPDRFSGSGSGTDFTLKISRVEAEDFGVYFCSQSTHVPYTFGPGTKLEIK
Consider B3, for which the binding entry in experiment [1] and in experiment [2] was “binds” in each case.

B4: Antibody B (antibody, V domains shown)
VH: EVQLVESGGGLVKPGGSLRLSCAASGITFSSYAMSWVRQAPGKGLEWVASISSGGSTYYPDSVKGRFTISRDNAKNSLYLQMNSLRAEDTAVYYCVAIWDGSSYGYWGQGTTVTVSS
VL: DIVMTQTPLSLSVTPGQPASISCKSGQSLVHSNGKTYLHWYLQKPGQSPQLLIYKVSNRFSGVPDRFSGSGSGTDFTLKISRVEAEDVGVYYCSQSTHVPFTFGQGTKLEIK
As to B4, the binding entry in experiment [1] and in experiment [2] was “binds” each time.

B5: Antibody E (antibody, V domains shown)
VH: EVQLVESGGGLVQPGGSLKLSCAASGFTFSDAWMDWVRQAPGKGLEWVAEIRNKANNHATYFTESVKGRFTISRDDSKNTVYLQMNSLRAEDTAVYYCTTATFVYWGQGTLVTVSS
VL: DVVMTQSPLSLPVSLGDRASISCRSSQSLVRNGITYLHWYQQKPGQSPKLLIYKVSNRFSGVPDRFSGSGSGTDFTLKISSVEAEDFGVYYCSQTPHVPYTFGQGTKLEIK
Consider B5, for which the binding entry in experiment [1] and in experiment [2] was “binds” throughout.

Source of the values: patent US20250042982A1.
